# Test results as given in the supplement of paper PMC6143611.
# Values joined by “and” are separate entries in the source; they are usually repeats but may differ in a detail not shown here. Equal values may be shown once. Where a name gives a salt, the structure may show the parent alone. ± gives the uncertainty stated by the source. Some of the results follow. Part of the spread comes from offsets between plates or batches.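 Larvae carried a heat-shock-induced fluorescent stripe in rod outer segments, set at 6 dpf; the shedding distance runs from this stripe to the outer segment tip, measured in confocal stacks, about three fish per compound. The controls got 0.2% DMSO vehicle, and the paper flagged compounds with at least a 20% change against the same-week control and p < 0.001 (Dunnett test on mixed-effects models).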
# Key:
# [1] = tested on: Danio rerio larva rod photoreceptor outer segment; assay: rod outer segment growth distance Dg, difference from same-week DMSO control mean; higher = more outer segment growth; settings: 20 µM; treatment time: 4 days (6-10 dpf)
# [2] = tested on: Danio rerio larva rod photoreceptor outer segment; assay: rod outer segment shedding distance Ds, difference from same-week DMSO control mean; higher = less outer segment shedding; settings: 20 µM; treatment time: 4 days (6-10 dpf)
Compound,rod outer segment growth distance Dg [1] [um],rod outer segment shedding distance Ds [2]
COc1ccc(C2=N[C@@H](c3ccc(Cl)cc3)[C@@H](c3ccc(Cl)cc3)N2C(=O)N2CCNC(=O)C2)c(OC(C)C)c1 [Nutlin-3],-1.02 ± 0.13,-1.13 ± 0.24 um
CCc1ccc(CCOc2ccc(CC3SC(=O)NC3=O)cc2)nc1 (configuration not stated) [Pioglitazone HCl],0.82 ± 0.32,-1.23 ± 0.3 um
CN(C)CC[C@H](CSc1ccccc1)Nc1ccc(S(=O)(=O)NC(=O)c2ccc(N3CCN(Cc4ccccc4-c4ccc(Cl)cc4)CC3)cc2)cc1[N+](=O)[O-],-0.46 ± 0.23,-0.92 ± 0.24 um
COc1ccc(C[C@@H]2c3cc(OC)c(OC)cc3CC[N@+]2(C)CCC(=O)OCCCCCOC(=O)CC[N@@+]2(C)CCc3cc(OC)c(OC)cc3[C@H]2Cc2ccc(OC)c(OC)c2)cc1OC [Cisatracurium Besylate],0.64 ± 0.21,0.33 ± 0.22 um
CCC(C)(Oc1ccc(C2(c3ccc(OC(C)(CC)C(=O)O)cc3)CCCCC2)cc1)C(=O)O (configuration not stated) [Clinofibrate],-0.89 ± 0.22,-0.48 ± 0.13 um
COc1cccc2c1C(=O)c1c(O)c3c(c(O)c1C2=O)C[C@@](O)(C(C)=O)C[C@@H]3O[C@H]1C[C@H](N)[C@H](O)[C@H](C)O1 [Daunorubicin HCl],0.69 ± 0.2,-0.28 ± 0.18 um
Cc1cn([C@H]2O[C@@H](CO)[C@H](O)[C@H]2F)c(=O)[nH]c1=O [Clevudine],-1.15 ± 0.24,-0.48 ± 0.18 um
CCc1c(C(=O)NCCc2ccc(N3CCCCC3)cc2)[nH]c2ccc(Cl)cc12,-1.5 ± 0.21,0.47 ± 0.16 um
CC(C)NC[C@@H](C(=O)N1CCN(c2ncnc3c2[C@H](C)C[C@H]3O)CC1)c1ccc(Cl)cc1,-0.31 ± 0.17,-0.44 ± 0.13 um
CC(=O)O[C@H]1C(=O)[C@@]2(C)[C@H]([C@H](OC(=O)c3ccccc3)[C@]3(O)C[C@H](OC(=O)[C@H](O)[C@@H](NC(=O)c4ccccc4)c4ccccc4)C(C)=C1C3(C)C)[C@]1(OC(C)=O)CO[C@@H]1C[C@@H]2O [Paclitaxel],0.22 ± 0.29,0.2 ± 0.23 um
O=C(NC1CCOCC1)c1ccc(-c2cc(-c3c[nH]nc3-c3ccccn3)ccn2)cc1,-0.82 ± 0.15,-0.18 ± 0.13 um
O=C(O)c1cccnc1Nc1cccc(C(F)(F)F)c1 [Niflumic acid],0.5 ± 0.17,-0.14 ± 0.16 um
CC(=O)N[C@H]1[C@H]([C@H](O)[C@H](O)CO)OC(C(=O)O)=C[C@@H]1NC(=N)N [Zanamivir],0.35 ± 0.19,-0.01 ± 0.13 um
COc1cc(C(=O)NS(=O)(=O)c2ccccc2C)ccc1Cc1cn(C)c2ccc(NC(=O)OC3CCCC3)cc12 [Zafirlukast],0.37 ± 0.28,-0.75 ± 0.14 um
N#CCNC(=O)c1ccc(-c2ccnc(Nc3ccc(N4CCOCC4)cc3)n2)cc1,-1 ± 0.21,1.15 ± 0.29 um
CC(=O)OCC(=O)[C@@]1(O)CC[C@H]2[C@@H]3CCC4=CC(=O)CC[C@]4(C)[C@H]3C(=O)C[C@@]21C [Cortisone acetate],-1.52 ± 0.22,-0.4 ± 0.14 um
CC(=O)OCC(=O)[C@@]12N=C(C)O[C@@H]1C[C@H]1[C@@H]3CCC4=CC(=O)C=C[C@]4(C)[C@H]3[C@@H](O)C[C@@]12C [Deflazacort],0.03 ± 0.22,-0.25 ± 0.31 um
COc1ccc([C@@H]2CC(=O)c3c(O)cc(O[C@@H]4O[C@H](CO[C@@H]5O[C@@H](C)[C@H](O)[C@@H](O)[C@H]5O)[C@@H](O)[C@H](O)[C@H]4O)cc3O2)cc1O [Hesperidin],-0.53 ± 0.34,0.37 ± 0.39 um
CCCNC(C)C(=O)Nc1ccccc1C (configuration not stated) [Prilocaine],0.32 ± 0.17,-0.05 ± 0.16 um
COC(=O)[C@H](CCCN=C(N)N)NS(=O)(=O)c1ccc(C)cc1,–,-0.8 ± 0.34 um
C[C@H](NC(=O)Cc1cc(F)cc(F)c1)C(=O)N[C@H](C(=O)OC(C)(C)C)c1ccccc1,0.75 ± 0.32,-1.73 ± 0.4 um
O=C(O)/C=C/c1ccc(Cn2ccnc2)cc1 [Ozagrel HCl],0.05 ± 0.21,0.29 ± 0.22 um

Compound,rod outer segment growth distance Dg [1] [um],rod outer segment shedding distance Ds [2]
C[C@@H](O[C@H]1OCCN(Cc2n[nH]c(=O)[nH]2)[C@H]1c1ccc(F)cc1)c1cc(C(F)(F)F)cc(C(F)(F)F)c1 [Aprepitant],-0.17 ± 0.18,-1.39 ± 0.23 um
CC(=O)Oc1cc2c(s1)CCN(C(C(=O)C1CC1)c1ccccc1F)C2 (configuration not stated) [Prasugrel],0.19 ± 0.23,-0.08 ± 0.23 um
N#Cc1ccc(C(c2ccc(C#N)cc2)n2cncn2)cc1 [Letrozole],-0.3 ± 0.23,0.19 ± 0.28 um
S=C=Nc1cccc(NC(=S)NCCCCNC(=S)Nc2cccc(N=C=S)c2)c1,0.2 ± 0.16,-0.06 ± 0.12 um
Nc1nc2c(ncn2[C@@H]2O[C@H](CO)[C@@H](O)[C@H]2O)c(=O)[nH]1 [Guanosine],0.37 ± 0.25,-0.53 ± 0.36 um
CC(C)(C)c1nc(-c2cccc(NS(=O)(=O)c3c(F)cccc3F)c2F)c(-c2ccnc(N)n2)s1,-1.03 ± 0.17,-0.1 ± 0.13 um
NC(=O)N1c2ccccc2CC(=O)c2ccccc21 [Oxcarbazepine],-0.93 ± 0.2,0.06 ± 0.24 um
c1cnc2cc3c(cc2n1)[C@@H]1CNC[C@H]3C1 [Varenicline Tartrate],-0.25 ± 0.17,-0.23 ± 0.19 um
COc1ccc2[nH]cc(CCNC(C)=O)c2c1 [Melatonin],0.37 ± 0.19,-2.26 ± 0.23 um
Cc1ccccc1-n1c(Cn2nc(-c3cccc(O)c3)c3c(N)ncnc32)nc2cccc(C)c2c1=O,–,0.4 ± 0.25 um
COc1ccc2cccc(CCNC(C)=O)c2c1 [Agomelatine],-1.22 ± 0.27,-0.5 ± 0.34 um
Cc1cc(OCCCS(C)(=O)=O)cc(C)c1-c1cccc(COc2ccc3c(c2)OC[C@H]3CC(=O)O)c1,-0.57 ± 0.17,-0.76 ± 0.12 um
O=c1cc(-c2ccccc2)oc2cc(O)cc(O)c12 [Chrysin],-0.17 ± 0.37,-0.69 ± 0.38 um
C[C@@H]1CCN(C(=O)CC#N)C[C@@H]1N(C)c1ncnc2[nH]ccc12,–,0.24 um and 0.23 um
O=C1NC(=O)/C(=C/c2ccc(-c3ccc(F)cc3O)o2)S1,-0.42 ± 0.22,-0.8 ± 0.13 um
COc1cc(N2CCC(N(C)C)CC2)ccc1Nc1ncc(Cl)c(Nc2ccccc2P(C)(C)=O)n1,0.28 ± 0.16,-0.07 ± 0.14 um
CCOC(=O)c1c(C)n(C)c2ccc(O)cc12 [Mecarbinate],0.59 ± 0.21,-0.25 ± 0.25 um
CCCc1nn(C)c2c(=O)[nH]c(-c3cc(S(=O)(=O)N4CCN(C)CC4)ccc3OCC)nc12 [Sildenafil Citrate],0.56 ± 0.13,0.02 ± 0.19 um
CCCCCCCCCCCCCCCC(=O)OC[C@H](O)[C@H]1OC(=O)C(O)=C1O [L-Ascorbyl 6-palmitate],-0.05 ± 0.23,0.14 ± 0.22 um
O=S(=O)(O)CCSSCCS(=O)(=O)O [Dimesna],0.55 ± 0.19,-1.18 ± 0.27 um
N#C[C@@H]1C[C@@H]2C[C@@H]2N1C(=O)[C@@H](N)C12CC3CC(CC(O)(C3)C1)C2 [Saxagliptin],-0.56 ± 0.23,-0.64 ± 0.23 um
CCOc1ccc(Cc2cc([C@@H]3O[C@H](CO)[C@@H](O)[C@H](O)[C@H]3O)ccc2Cl)cc1 [Dapagliflozin],-0.88 ± 0.15,-0.73 ± 0.17 um

# In a second layout: entries from further up
Compound	rod outer segment growth distance Dg [1] [um]	rod outer segment shedding distance Ds [2]
COc1cc(N2CCC(N(C)C)CC2)ccc1Nc1ncc(Cl)c(Nc2ccccc2P(C)(C)=O)n1	0.28 ± 0.16	-0.07 ± 0.14 um
CCOC(=O)c1c(C)n(C)c2ccc(O)cc12 [Mecarbinate]	0.59 ± 0.21	-0.25 ± 0.25 um

# Next part:

Compound,rod outer segment growth distance Dg [1] [um],rod outer segment shedding distance Ds [2]
"Cc1[nH]c(/C=C2\C(=O)Nc3ccccc32)c(C)c1CCC(=O)O [TSU-68 (SU6668, Orantinib)]",-0.96 ± 0.18,0.07 ± 0.17 um
NS(=O)(=O)C#Cc1ccccc1 [Pifithrin-μ],-0.06 ± 0.23,-0.7 ± 0.17 um
CC#CCn1c(N2CCC[C@@H](N)C2)nc2c1c(=O)n(Cc1nc(C)c3ccccc3n1)c(=O)n2C [Linagliptin],0.29 ± 0.15,0.34 ± 0.15 um
CN(C)C(=O)[C@H](O)[C@H](Cc1ccccc1)NC(=O)c1cc2cc(Cl)ccc2[nH]1,-2.48 ± 0.23,-1.1 ± 0.13 um
C=CC1=C(C(=O)O)N2C(=O)[C@@H](NC(=O)/C(=N\O)c3csc(N)n3)[C@H]2SC1 [Cefdinir],0.62 ± 0.17,0.04 ± 0.14 um
CNC[C@H](O)c1cccc(O)c1 [Phenylephrine HCl],0.15 ± 0.28,-0.26 ± 0.15 um
CN(C)CCOc1ccc(-c2nc(-c3ccncc3)c(-c3ccc4c(c3)CC/C4=N\O)[nH]2)cc1,-0.21 ± 0.24,-0.57 ± 0.34 um
CCS(=O)(=O)c1cccc(-c2cc(C(=O)NC3CCN(C)CC3)c(C)c3[nH]c4ncc(C)cc4c23)c1,-0.63 ± 0.17,-0.33 ± 0.12 um
Nc1ccn([C@@H]2O[C@H](CO)[C@@H](O)C2(F)F)c(=O)n1 [Gemcitabine],0.8 ± 0.31,-0.26 ± 0.19 um
CC(C)N(C[C@H]1O[C@@H](n2cnc3c(N)ncnc32)[C@H](O)[C@@H]1O)[C@H]1C[C@@H](CCc2nc3cc(C(C)(C)C)ccc3[nH]2)C1,-1.07 ± 0.18,0.03 ± 0.15 um
Nc1nc(N)c2nc(-c3cccc(O)c3)cnc2n1,-0.17 ± 0.19,-0.73 ± 0.11 um
CCc1ccc(CCOc2ccc(CC3SC(=O)NC3=O)cc2)nc1 (configuration not stated) [Pioglitazone],-2.52 ± 0.25,-0.87 ± 0.19 um
CCC(C)(C)c1ccc(CC(C)CN2C[C@@H](C)O[C@@H](C)C2)cc1 (some centres not stated) [Amorolfine HCl],-2.29 ± 0.28,0.09 ± 0.21 um
"CC[C@H](CO)Nc1nc(NCc2ccccc2)c2ncn(C(C)C)c2n1 [Roscovitine (Seliciclib,CYC202)]",-0.04 ± 0.27,-0.31 ± 0.19 um
CC(=O)Nc1nc(C)c(-c2ccc(Cl)c(S(=O)(=O)NCCO)c2)s1,-0.5 ± 0.17,-0.54 ± 0.19 um
O=c1cc(-c2ccc(O)c(O)c2)oc2cc(O)cc(O)c12 [Luteolin],0.88 ± 0.26,-0.12 ± 0.31 um
CCCCCCCCOc1ccccc1C(=O)Nc1ccc(C(=O)OCC[N+](C)(CC)CC)cc1 [Otilonium Bromide],1.22 ± 0.14,0.33 ± 0.12 um
CN(C)Cc1ccc(S(=O)(=O)n2ccc(/C=C/C(=O)NO)c2)cc1 [Resminostat],0.2 ± 0.16,0.29 ± 0.13 um
N[C@@H]1CN(c2c(F)cc3c(=O)c(C(=O)O)cn([C@@H]4C[C@@H]4F)c3c2Cl)CC12CC2 [Sitafloxacin Hydrate],-0.71 ± 0.3,-0.07 ± 0.36 um
CC(C)[C@H]1C(=O)N[C@@H](CCCNC(=N)N)C(=O)NCC(=O)N[C@@H](CC(=O)O)C(=O)N[C@H](Cc2ccccc2)C(=O)N1C [Cilengitide],-0.81 ± 0.15,-0.18 ± 0.12 um
"CCCS(=O)(=O)Nc1ccc(F)c(C(=O)c2c[nH]c3ncc(-c4ccc(Cl)cc4)cc23)c1F [Vemurafenib (PLX4032, RG7204)]",-0.6 ± 0.24,-0.51 ± 0.23 um
